Data on 28 substances can be found in publication PMC10943070.

The chains behind the UniProt entries cited, without tags or fusion partners. Where a name states a change or a piece, a line headed by the entry shows the natural chain unless it says otherwise.
UniProt Q02487: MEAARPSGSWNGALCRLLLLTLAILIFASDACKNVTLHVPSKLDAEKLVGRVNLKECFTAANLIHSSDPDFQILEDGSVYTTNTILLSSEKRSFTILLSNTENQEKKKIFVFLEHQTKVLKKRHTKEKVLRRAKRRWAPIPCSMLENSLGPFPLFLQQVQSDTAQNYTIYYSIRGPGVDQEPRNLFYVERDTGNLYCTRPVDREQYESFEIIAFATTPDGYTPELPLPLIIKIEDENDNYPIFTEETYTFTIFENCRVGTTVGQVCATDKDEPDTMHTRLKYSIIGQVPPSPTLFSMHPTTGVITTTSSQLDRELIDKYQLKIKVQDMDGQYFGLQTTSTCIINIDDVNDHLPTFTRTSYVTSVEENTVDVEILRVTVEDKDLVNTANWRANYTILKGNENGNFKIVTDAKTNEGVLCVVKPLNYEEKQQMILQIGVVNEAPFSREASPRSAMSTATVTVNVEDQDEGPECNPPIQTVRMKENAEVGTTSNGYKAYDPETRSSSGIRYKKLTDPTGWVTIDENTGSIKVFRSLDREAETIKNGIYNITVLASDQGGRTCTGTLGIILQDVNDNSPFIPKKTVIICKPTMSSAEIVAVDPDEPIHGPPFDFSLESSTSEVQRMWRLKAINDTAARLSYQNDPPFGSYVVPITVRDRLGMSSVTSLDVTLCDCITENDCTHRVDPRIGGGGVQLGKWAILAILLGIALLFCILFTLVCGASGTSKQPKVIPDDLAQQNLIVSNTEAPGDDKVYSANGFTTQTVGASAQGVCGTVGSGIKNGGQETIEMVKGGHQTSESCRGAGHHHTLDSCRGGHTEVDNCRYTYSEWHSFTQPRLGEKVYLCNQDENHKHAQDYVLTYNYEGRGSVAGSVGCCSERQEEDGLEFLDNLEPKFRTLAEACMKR
UniProt A0A8I3PHM6: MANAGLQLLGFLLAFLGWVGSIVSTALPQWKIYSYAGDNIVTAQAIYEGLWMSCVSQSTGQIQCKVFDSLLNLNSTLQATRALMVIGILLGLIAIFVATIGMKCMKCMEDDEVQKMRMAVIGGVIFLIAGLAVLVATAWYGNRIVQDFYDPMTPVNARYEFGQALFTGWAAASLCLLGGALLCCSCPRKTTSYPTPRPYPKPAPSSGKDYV
UniProt Q6YKA4: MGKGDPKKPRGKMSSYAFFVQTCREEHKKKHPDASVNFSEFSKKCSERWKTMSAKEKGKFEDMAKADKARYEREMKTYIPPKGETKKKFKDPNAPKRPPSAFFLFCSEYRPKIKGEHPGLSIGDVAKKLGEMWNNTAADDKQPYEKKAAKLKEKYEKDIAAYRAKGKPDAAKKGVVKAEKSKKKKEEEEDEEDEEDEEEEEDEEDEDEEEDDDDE
UniProt P42929: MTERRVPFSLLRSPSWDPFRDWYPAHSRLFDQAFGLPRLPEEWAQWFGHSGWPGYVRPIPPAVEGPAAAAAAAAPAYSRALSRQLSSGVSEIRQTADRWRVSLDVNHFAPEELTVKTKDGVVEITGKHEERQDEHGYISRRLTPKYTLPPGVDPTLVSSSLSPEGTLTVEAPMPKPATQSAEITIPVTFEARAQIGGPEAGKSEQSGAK
UniProt A0A8I3NQ19: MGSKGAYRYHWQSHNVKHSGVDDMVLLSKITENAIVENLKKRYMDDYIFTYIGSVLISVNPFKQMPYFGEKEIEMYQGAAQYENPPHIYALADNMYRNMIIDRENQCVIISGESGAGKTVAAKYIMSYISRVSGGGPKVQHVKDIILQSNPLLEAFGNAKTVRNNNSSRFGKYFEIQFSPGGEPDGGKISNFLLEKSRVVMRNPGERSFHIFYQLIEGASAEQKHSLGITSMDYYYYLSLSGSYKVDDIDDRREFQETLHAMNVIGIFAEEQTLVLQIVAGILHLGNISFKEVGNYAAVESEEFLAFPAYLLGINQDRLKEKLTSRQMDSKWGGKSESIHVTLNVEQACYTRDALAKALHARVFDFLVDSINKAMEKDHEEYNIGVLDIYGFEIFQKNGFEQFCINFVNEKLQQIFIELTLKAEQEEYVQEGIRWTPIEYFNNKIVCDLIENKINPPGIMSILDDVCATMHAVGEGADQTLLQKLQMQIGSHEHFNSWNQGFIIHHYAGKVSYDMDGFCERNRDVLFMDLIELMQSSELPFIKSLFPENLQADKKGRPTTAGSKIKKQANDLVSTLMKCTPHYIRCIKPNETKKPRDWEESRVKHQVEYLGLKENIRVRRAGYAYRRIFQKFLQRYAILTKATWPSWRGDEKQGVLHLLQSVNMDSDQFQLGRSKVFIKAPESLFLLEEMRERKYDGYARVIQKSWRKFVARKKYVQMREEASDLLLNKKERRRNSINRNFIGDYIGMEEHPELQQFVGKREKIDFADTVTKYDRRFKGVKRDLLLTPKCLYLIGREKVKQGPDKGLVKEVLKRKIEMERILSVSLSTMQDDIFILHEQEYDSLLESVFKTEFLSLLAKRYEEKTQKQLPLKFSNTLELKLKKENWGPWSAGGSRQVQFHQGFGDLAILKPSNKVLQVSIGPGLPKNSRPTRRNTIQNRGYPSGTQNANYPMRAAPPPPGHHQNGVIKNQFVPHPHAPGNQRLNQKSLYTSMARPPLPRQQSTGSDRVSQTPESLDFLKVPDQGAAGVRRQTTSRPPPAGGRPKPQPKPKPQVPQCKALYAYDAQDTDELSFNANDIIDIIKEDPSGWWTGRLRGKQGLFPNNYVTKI
UniProt P60467: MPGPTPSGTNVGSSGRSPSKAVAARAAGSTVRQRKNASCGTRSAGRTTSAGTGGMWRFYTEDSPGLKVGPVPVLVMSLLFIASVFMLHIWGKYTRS
UniProt A0A8I3NAW5: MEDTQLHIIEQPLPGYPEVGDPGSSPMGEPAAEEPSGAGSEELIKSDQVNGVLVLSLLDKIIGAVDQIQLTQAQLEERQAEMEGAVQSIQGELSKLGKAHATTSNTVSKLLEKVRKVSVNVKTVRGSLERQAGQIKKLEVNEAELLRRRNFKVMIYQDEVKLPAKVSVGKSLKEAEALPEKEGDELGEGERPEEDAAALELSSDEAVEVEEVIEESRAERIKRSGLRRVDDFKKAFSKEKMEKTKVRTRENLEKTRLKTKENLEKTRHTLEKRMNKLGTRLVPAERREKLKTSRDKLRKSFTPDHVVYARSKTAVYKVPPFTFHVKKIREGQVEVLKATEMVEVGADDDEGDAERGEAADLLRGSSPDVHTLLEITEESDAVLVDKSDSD
UniProt A0A8I3N1D8: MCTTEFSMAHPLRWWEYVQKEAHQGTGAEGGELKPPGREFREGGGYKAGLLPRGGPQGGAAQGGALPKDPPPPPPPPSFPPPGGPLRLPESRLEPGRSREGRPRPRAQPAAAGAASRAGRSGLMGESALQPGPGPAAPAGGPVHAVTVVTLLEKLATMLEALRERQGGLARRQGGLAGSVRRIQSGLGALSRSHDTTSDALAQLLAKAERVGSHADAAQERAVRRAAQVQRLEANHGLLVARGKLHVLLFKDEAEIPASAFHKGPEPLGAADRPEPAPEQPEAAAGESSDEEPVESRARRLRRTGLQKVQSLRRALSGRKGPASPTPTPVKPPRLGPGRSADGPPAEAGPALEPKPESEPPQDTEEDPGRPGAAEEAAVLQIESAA
UniProt A0A8I3P9Q5: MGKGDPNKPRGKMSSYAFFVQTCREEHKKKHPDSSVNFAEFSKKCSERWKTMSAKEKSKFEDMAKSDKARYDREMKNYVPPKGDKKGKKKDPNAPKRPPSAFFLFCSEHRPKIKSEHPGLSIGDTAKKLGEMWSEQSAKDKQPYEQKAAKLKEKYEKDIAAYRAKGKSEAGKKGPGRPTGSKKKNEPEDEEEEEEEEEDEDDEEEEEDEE
UniProt A0A8I3MM93: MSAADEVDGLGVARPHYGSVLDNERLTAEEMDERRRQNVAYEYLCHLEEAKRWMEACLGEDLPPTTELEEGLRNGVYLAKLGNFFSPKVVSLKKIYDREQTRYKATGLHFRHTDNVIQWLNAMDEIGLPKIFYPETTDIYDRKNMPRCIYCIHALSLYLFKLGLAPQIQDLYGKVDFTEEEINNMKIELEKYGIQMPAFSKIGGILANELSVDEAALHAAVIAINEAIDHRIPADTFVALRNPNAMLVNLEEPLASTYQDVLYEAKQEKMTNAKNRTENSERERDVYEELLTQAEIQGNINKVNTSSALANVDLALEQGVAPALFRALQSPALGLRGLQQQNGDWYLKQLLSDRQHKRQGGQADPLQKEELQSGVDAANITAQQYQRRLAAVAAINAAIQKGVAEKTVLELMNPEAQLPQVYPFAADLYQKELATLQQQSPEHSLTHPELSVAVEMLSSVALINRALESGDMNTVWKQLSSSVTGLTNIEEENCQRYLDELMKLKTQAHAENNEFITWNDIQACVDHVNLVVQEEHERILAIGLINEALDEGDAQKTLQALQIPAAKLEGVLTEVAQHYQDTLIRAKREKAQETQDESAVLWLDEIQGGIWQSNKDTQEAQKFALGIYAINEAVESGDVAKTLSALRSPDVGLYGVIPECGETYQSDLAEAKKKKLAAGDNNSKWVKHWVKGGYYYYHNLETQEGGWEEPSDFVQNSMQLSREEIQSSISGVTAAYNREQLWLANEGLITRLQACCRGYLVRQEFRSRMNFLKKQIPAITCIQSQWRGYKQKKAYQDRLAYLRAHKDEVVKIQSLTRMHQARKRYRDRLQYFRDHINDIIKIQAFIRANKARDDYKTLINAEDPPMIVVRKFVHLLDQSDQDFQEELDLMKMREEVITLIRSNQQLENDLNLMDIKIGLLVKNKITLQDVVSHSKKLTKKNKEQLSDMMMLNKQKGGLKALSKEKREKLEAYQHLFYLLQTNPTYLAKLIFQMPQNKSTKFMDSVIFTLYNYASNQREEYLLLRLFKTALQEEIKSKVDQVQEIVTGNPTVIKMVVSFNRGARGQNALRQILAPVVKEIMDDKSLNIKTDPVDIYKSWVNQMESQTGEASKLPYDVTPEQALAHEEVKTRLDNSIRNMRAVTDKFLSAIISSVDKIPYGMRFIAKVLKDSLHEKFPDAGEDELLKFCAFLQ
UniProt A0A8I3MR05: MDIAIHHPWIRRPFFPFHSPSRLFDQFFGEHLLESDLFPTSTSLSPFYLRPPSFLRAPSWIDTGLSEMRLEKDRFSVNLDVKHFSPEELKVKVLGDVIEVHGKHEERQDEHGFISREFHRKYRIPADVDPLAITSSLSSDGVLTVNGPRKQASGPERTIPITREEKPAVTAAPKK

These are yes or no findings as the source states them, for the method shown. In cells and extracts the contact can be indirect. These calls come from enrichment with a bait or labelling near it, and not all partners need be listed. For some of these results: No binding means not detected with the bait. For some of these results: Where a sequence is shown, tags or fusion partners need not be part of it.

Assay [1] has as its target T1, plakoglobin tagged with BirA-myc (PG∗; merged data of myc-BirA-PG and PG-BirA-myc) (UniProt P14923).
T1 sequence: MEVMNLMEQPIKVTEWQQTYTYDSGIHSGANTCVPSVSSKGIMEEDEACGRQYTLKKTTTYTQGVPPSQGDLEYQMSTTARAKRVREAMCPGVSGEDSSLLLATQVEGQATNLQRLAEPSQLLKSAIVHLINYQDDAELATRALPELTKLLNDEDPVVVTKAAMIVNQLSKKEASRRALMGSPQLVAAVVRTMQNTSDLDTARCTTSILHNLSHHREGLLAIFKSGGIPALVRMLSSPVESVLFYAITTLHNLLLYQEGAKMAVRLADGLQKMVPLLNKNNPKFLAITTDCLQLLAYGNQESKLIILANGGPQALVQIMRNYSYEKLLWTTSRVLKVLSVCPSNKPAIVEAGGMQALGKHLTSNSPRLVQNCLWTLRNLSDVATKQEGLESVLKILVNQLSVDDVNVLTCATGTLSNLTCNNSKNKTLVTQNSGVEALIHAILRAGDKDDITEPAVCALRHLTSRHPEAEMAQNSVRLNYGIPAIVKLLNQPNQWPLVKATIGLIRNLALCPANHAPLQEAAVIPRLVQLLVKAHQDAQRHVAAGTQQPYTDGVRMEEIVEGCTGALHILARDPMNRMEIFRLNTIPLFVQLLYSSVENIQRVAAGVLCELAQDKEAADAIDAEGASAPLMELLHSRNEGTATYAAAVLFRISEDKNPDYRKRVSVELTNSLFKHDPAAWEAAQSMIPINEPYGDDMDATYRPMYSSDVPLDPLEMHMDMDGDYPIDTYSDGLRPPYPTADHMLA
The assay is described as follows: proximity labelling; BioID: bait tagged with BirA(R118G) and myc, stably expressed in MDCK cells; confluent for 1 day (Ca^2+-dependent desmosomes) or 5 days (hyper-adhesive desmosomes), 100 μM biotin for the last 16 h; streptavidin beads, LC-MS/MS; SAINTexpress against BirA-myc control, BFDR ≤0.05.

The next assay concerns the target T2, myc-BirA-plakophilin 2a (UniProt Q99959).
T2 sequence: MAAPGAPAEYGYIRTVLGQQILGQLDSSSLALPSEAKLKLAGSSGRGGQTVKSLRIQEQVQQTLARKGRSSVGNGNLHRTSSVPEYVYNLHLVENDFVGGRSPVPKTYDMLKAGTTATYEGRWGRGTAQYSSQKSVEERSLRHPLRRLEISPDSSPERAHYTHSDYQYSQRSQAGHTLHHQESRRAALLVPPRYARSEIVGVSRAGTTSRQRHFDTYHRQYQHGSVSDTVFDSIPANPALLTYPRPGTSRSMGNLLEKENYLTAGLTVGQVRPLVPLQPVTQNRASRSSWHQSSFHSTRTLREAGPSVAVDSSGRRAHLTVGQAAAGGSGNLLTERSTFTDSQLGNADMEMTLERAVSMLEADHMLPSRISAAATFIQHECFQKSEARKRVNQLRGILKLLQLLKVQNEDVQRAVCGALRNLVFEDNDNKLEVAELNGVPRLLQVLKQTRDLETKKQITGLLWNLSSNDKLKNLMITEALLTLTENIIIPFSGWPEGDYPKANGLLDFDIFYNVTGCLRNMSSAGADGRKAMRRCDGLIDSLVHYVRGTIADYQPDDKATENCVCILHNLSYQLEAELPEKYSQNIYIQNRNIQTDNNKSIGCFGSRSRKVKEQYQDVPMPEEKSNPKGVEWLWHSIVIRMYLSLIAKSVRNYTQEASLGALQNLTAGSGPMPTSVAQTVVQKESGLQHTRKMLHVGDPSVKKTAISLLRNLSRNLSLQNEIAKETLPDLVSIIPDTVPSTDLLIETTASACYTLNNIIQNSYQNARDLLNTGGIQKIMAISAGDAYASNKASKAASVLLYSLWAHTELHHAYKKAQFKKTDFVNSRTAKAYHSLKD
Described as above.

The target in assay [2] is desmocollin 2a-BirA-myc (UniProt Q02487). Description: condition: only hyper-adhesive condition (5 days confluent); proximity labelling; BioID as a1, only the cells confluent for 5 days (hyper-adhesive desmosomes).
The target is the same in assay [3]. The assay is described as follows: proximity labelling; BioID: bait tagged with BirA(R118G) and myc, stably expressed in MDCK cells; confluent for 1 day (Ca^2+-dependent desmosomes) or 5 days (hyper-adhesive desmosomes), 100 μM biotin for the last 16 h; streptavidin beads, LC-MS/MS; SAINTexpress against BirA-myc control, BFDR ≤0.05.
For assay [4] the target is unchanged. The assay is described as follows: condition: only Ca^2+-dependent condition (1 day confluent); proximity labelling; BioID as a1, only the cells confluent for 1 day (Ca^2+-dependent desmosomes).

On to nectin 2 (dog (endogenous in MDCK)), for which, in assay [1], the binding entry is on record as “binds”.
In the case of “plakophilin 4 (dog (endogenous in MDCK))”, the binding result (with myc-BirA-plakophilin 2a; in assay [1]) was “binds” throughout.
In the case of afadin (dog (endogenous in MDCK)), the binding result in assay [1] is recorded as “binds”.
In the case of ankyrin 3 (dog (endogenous in MDCK)), the binding entry in assay [1] was “binds”.
“claudin 1 (from UniProt A0A8I3PHM6 1-211)”: the binding result with desmocollin 2a-BirA-myc [2] is “no binding”; in the assay with desmocollin 2a-BirA-myc [3], “binds”.
For KIAA1217 (dog (endogenous in MDCK)), the binding entry (with myc-BirA-plakophilin 2a; in assay [1]) was “binds” each time.
Regarding “high mobility group protein 1 (from UniProt Q6YKA4 1-215)”, the binding result (with myc-BirA-plakophilin 2a; in the assay with desmocollin 2a-BirA-myc [3]; in assay [1]) was “binds” in each case.
Regarding “Calsyntenin-1 (dog (endogenous in MDCK))”, the binding result in assay [1] is “binds”.
Take erbin (dog (endogenous in MDCK)): the binding entry (in the assay with myc-BirA-plakophilin 2a; in assay [1]) was “binds” each time.
On to desmoglein 2 (dog (endogenous in MDCK)), for which the binding result (with myc-BirA-plakophilin 2a; in assay [1]) was “binds” throughout.
HSPB1 (from UniProt P42929 1-209): the binding entry with myc-BirA-plakophilin 2a is recorded as “binds”.
Turning to myosin 1B (dog (endogenous in MDCK)), the binding entry in assay [1] is recorded as “binds”.
For the substance “myosin 1E (from UniProt A0A8I3NQ19 1-1108)”, the binding result in assay [1] is “binds”.
“plakophilin 3 (dog (endogenous in MDCK))”: the binding result (with myc-BirA-plakophilin 2a; in assay [1]) was “binds” in each case.
In the case of “sec61 translocon β (from UniProt P60467 1-96)”, the binding entry with desmocollin 2a-BirA-myc [2] is “no binding”; in the assay with desmocollin 2a-BirA-myc [3], “binds”.
In the case of p120-catenin (dog (endogenous in MDCK)), the binding entry (in the assay with myc-BirA-plakophilin 2a; in assay [1]) was “binds” in each case.
annexin A5 (dog (endogenous in MDCK)): the binding result (in the assay with myc-BirA-plakophilin 2a; in assay [1]) was “binds” each time.
As for “caveolae-associated protein 1 (from UniProt A0A8I3NAW5 1-390)”, the binding result is reported as “no binding” with desmocollin 2a-BirA-myc [4] and “binds” in the assay with desmocollin 2a-BirA-myc [3].
With nectin 3 (dog (endogenous in MDCK)), the binding entry in assay [1] is listed as “binds”.
In the case of “caveolae-associated protein 3 (from UniProt A0A8I3N1D8 1-386)”, the binding entry was “no binding” with desmocollin 2a-BirA-myc [4] and “binds” with desmocollin 2a-BirA-myc [3].
Turning to α-catenin (dog (endogenous in MDCK)), the binding result (with myc-BirA-plakophilin 2a; in assay [1]) was “binds” in each case.
moesin (dog (endogenous in MDCK)): the binding entry in assay [1] is on record as “binds”.
Consider “adenomatous polyposis coli (APC) protein (dog (endogenous in MDCK))”, for which, in assay [1], the binding entry is “binds”.
With “high mobility group protein 2 (from UniProt A0A8I3P9Q5 1-210)”, the binding entry (with myc-BirA-plakophilin 2a; with desmocollin 2a-BirA-myc [3]; in assay [1]) was “binds” each time.
For the substance “IQ calmodulin-binding motif containing GTPase-activating protein 1 (from UniProt A0A8I3MM93)”, the binding result in assay [1] is listed as “binds”.
As for Lamin A/C (dog (endogenous in MDCK)), the binding result (with myc-BirA-plakophilin 2a; in assay [1]) was “no binding” in each case.
Regarding “high mobility group protein 3 (dog (endogenous in MDCK))”, the binding result (with myc-BirA-plakophilin 2a; in assay [1]) was “binds” each time.
Turning to CRYAB (from UniProt A0A8I3MR05 1-175), in the assay with myc-BirA-plakophilin 2a, the binding entry was “binds”.
